Consider 59 compounds from PubChem BioAssay AID2685 (National Center for Advancing Translational Sciences (NCATS), 2010).

This is one part of the list. Shown are side measurements of this screen, not its main read-out; they come without a call. The list favours compounds with an active or inconclusive main result. Words in brackets tell the shape of the fitted curve; partial curves, single points and poor fits give uncertain potencies.

This test is described as follows: qHTS Assay for Lipid Storage Modulators in Drosophila S3 Cells.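 For cell number change: cells counted by Cell Tracker Red CMTPX staining in the red channel.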 To be noted: BODIPY lipid droplet fluorescence, 18-24 h; for cell number change: measured here: cell count max response, cells fed with added oleic acid. Put shortly:
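Drosophila S3 cells loaded with oleic acid (400 uM, as added) and compounds at several concentrations; lipid droplets imaged by 488-nm laser-scanning cytometry, 500–530 nm intensity and object ratio to cell channel. Percent activity normalized to 20 uM Triacsin C.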
A general note: qHTS replaces the single test concentration by a dilution series.

Where [1] appears, read: measured here: lipid fluorescence (Fed channel) AC50, cells fed with added oleic acid.
Setting [2] is: measured here: cell number channel AC50, cells fed with added oleic acid.

The AC50 is the concentration giving half of the maximal activity seen. A higher AC50 goes with activity only at high concentration. Take `O=C(CN1C(=O)COc2ccccc21)NCCN1CCCC1`: the cell number change came to 0.917%. Also, the concentration at half-maximal activity (AC50) under setting [1] was 29.1 µM [falling, single point]. With `O=C(CSc1ncn[nH]1)Nc1nnc(-c2ccccc2)s1`, the cell number change was found to be 30%. For the same compound, under setting [2], the half-maximal activity concentration (AC50) was 0.58 µM [rising, full curve, poor fit]. Moreover, the AC50 under setting [1] is 10.3 µM [rising, partial curve, poor fit]. Consider `CC1CCc2ccccc2N1C(=O)c1cccs1` (stereo not drawn), for which the cell number change is -5.39%. Besides, the AC50 under setting [1] is 0.461 µM [falling, full curve]. Consider `CCc1ccccc1OCC(=O)Nc1ccc(C)c(S(=O)(=O)N2CCCCCC2)c1`, for which the cell number change was -14.3%. Moreover, the AC50 under setting [1] is 2.91 µM [falling, partial curve]. As for `O=C(NCCCN1CCCCC1)C1(S(=O)(=O)c2ccc(Cl)cc2)CC1`, the cell number change was -8.28%. For the same compound, the concentration at half-maximal activity (AC50) under setting [1] was 25.9 µM [falling, partial curve, poor fit]. On to `Cc1ccc(NC(=O)C2CC3CCC2C3)c(Br)c1` (stereo not drawn), for which the cell number change was -7.37%.

Regarding `COc1ccc(C(C(=O)NC(C)(C)C)N(C(=O)CCC(=O)Nc2cc(C)on2)c2ccc3c(c2)OCCO3)cc1` (stereo not drawn), the cell number change was -5.71%. For the same compound, under setting [1], the half-maximal activity concentration (AC50) is 29.1 µM [rising, single point]. Turning to `COc1cc(C2CC(=O)OC3=C2C(=O)CC(C)(C)C3)cc(OC)c1OC` (stereo not drawn), the cell number change came to 8.39%. Moreover, under setting [2], the concentration at half-maximal activity (AC50) is 0.651 µM [rising, single point].

In the case of `CC(=O)CC(=O)Nc1ncc(C(F)(F)F)cc1Cl`, the cell number change is -30.4%. In addition, the AC50 under setting [2] is 1.84 µM [falling, partial curve]. Further, under setting [1], the half-maximal activity concentration (AC50) is 9.2 µM [falling, single point]. Regarding `Cc1nc(NC(=S)NC(=O)c2ccccc2)sc1C(=O)N(C)C`, the cell number change is -6.72%.

With `Cc1cccc(C(=O)Nc2nnc(SCC(=O)Nc3ccc4c(c3)oc3ccccc34)s2)c1`, the cell number change is -57.8%. Under setting [2], the AC50 was 32.6 µM [falling, partial curve, poor fit]. Turning to `Cc1c(Cl)cccc1NC(=O)CN1C(=O)CSc2ncccc21`, the cell number change worked out at 18.6%. Under setting [1], the AC50 is 0.82 µM [rising, single point].

With `COc1cc(N2CCCC2)c(OC)cc1/C=C(/C#N)c1cccc(F)c1`, the cell number change was -72.3%. Also, the AC50 under setting [2] is 29.1 µM [falling, single point]. Further, the half-maximal activity concentration (AC50) under setting [1] is 29.1 µM [falling, partial curve]. Consider `Cc1cc(C)n2[nH]c(=O)c(N=Nc3ccccc3)c2n1`, for which the cell number change was 48.7%. Besides, the AC50 under setting [2] is 23.1 µM [rising, single point]. With `COc1cccc(-c2cc(C(F)(F)F)nc(-n3cccn3)n2)c1`, the cell number change was 87.9%. In addition, the AC50 under setting [2] was 1.84 µM [rising, partial curve]. For the same compound, the concentration at half-maximal activity (AC50) under setting [1] was 2.91 µM [rising, partial curve].

On to `Cc1ccc(C23CC4CC(CC(NC(=O)N5CCN(C)CC5)(C4)C2)C3)cc1`, for which the cell number change is -19.3%. In the case of `Cc1c(Br)c([N+](=O)[O-])nn1CC(=O)c1ccccc1`, the cell number change stood at 76.1%. Also, the concentration at half-maximal activity (AC50) under setting [2] is 29.1 µM [rising, single point]. For the same compound, the half-maximal activity concentration (AC50) under setting [1] was 29.1 µM [rising, single point].

Regarding `COc1cccc(CC(=O)n2nc(N)c3cc4ccc(OC)cc4nc32)c1`, the cell number change was -20.1%. Besides, the concentration at half-maximal activity (AC50) under setting [1] is 29.1 µM [falling, single point]. As to `CSc1nsc(SCC(=O)Nc2ccccc2F)n1`, the cell number change was -7.89%. Also, the half-maximal activity concentration (AC50) under setting [1] was 3.55 µM [rising, single point]. Turning to `COc1ccc(C2/C(=C(/O)c3ccccc3)C(=O)C(=O)N2C)c(OC)c1` (stereo not drawn), the cell number change turned out to be 13.1%. With `CC(=O)C1=NN(c2ccccc2)C(c2cccs2)N1c1ccccc1` (stereo not drawn), the half-maximal activity concentration (AC50) under setting [2] was 2.91 µM [rising, single point]. `CCOc1cccc(C(=O)Nc2ccc(NC(=O)c3cc4ccccc4o3)c(OC)c2)c1`: the cell number change was -25.4%. For the same compound, under setting [1], the AC50 is 13 µM [falling, single point]. In the case of `COc1ccccc1OCCn1nnc2ccccc21`, the cell number change was -7.14%. Same read-out and setting: next, `CC(C)(C)C(=O)NC(=C(Cl)Cl)P(=O)(O)O`: -3.12%; `CCCCc1c(O)nc(SCC(=O)N2CCCCC2)n(-c2ccccc2C)c1=O`: 21%. Consider `Cn1c(C(=O)O)ccc1S(=O)(=O)N(Cc1ccccc1)Cc1ccccc1`, for which the cell number change came to 5.54%. Also, the concentration at half-maximal activity (AC50) under setting [1] was 6.51 µM [falling, single point]. With `O=C1N=C(N2CCCCC2)S/C1=C\c1ccccc1F`, the cell number change was -7.94%. Regarding `O=C(Nc1ccc(Br)c2cccnc12)c1ccc(Cn2cc(Cl)cn2)o1`, the cell number change is -20.1%. Moreover, the AC50 under setting [1] was 1.03 µM [rising, full curve]. For `Nc1nccnc1C(=O)OCC(=O)NCCc1ccc(S(N)(=O)=O)cc1`, the cell number change is -22.5%. In addition, the concentration at half-maximal activity (AC50) under setting [1] was 20.6 µM [falling, single point]. Turning to `Cc1ccc(S(=O)(=O)Nc2cc3c(cc2N2CCOCC2)n(C)c(=O)c(=O)n3C)cc1`, the cell number change came to 5.28%. The AC50 under setting [1] is 29.1 µM [falling, single point]. Regarding `O=C(c1cc(C2CC2)nc2ccccc12)N1N=C(C(F)F)CC1(O)C(F)F` (stereo not drawn), the cell number change is -33.7%. In addition, the half-maximal activity concentration (AC50) under setting [2] was 8.2 µM [falling, partial curve]. Take `Cc1ccc(NC(=O)CCn2c(=O)[nH]c3ccsc3c2=O)cc1F`: the cell number change came to 95%. In addition, the half-maximal activity concentration (AC50) under setting [2] was 23.1 µM [rising, single point].

Take `CCNC(=S)NCCN1CCOCC1`: the cell number change was determined as 33.3%. Also, the half-maximal activity concentration (AC50) under setting [2] was 32.6 µM [rising, single point]. As to `O=c1sc2ccccc2c(N2CCCC2)c1[N+](=O)[O-]`, the cell number change is -43.6%. Besides, the AC50 under setting [2] was 11.6 µM [falling, partial curve, poor fit]. The AC50 under setting [1] was 2.31 µM [falling, partial curve]. `CC(=O)Nc1ccc(S(=O)(=O)N2CCN(C(=O)C3COc4ccccc4O3)CC2)cc1` (stereo not drawn): the cell number change was found to be 39%. Besides, the AC50 under setting [2] is 32.6 µM [rising, single point]. The AC50 under setting [1] was 25.9 µM [rising, partial curve]. With `Cc1cccc(C(=O)NCC2CCN(C(=O)c3cccc(C)c3)CC2)c1`, the cell number change was -0.99%. In addition, the AC50 under setting [2] is 0.92 µM [rising, full curve, poor fit]. Turning to `Cc1ccc(C(=O)Nc2ccc(C)c(S(=O)(=O)N(C)C)c2)s1`, the cell number change was found to be 31.6%. The AC50 under setting [2] is 5.17 µM [rising, partial curve]. Regarding `O=S(=O)(NCCCCCNS(=O)(=O)c1c(F)cccc1F)c1ccc2c(c1)OCCO2`, the cell number change was -46.4%. Moreover, the AC50 under setting [2] was 7.31 µM [falling, partial curve]. For the same compound, the concentration at half-maximal activity (AC50) under setting [1] was 7.31 µM [falling, partial curve]. Regarding `C=C[C@@H]1c2ccccc2N(S(=O)(=O)c2ccc(C)cc2)[C@H](c2ccc(OC(C)=O)cc2)C1(C#N)C#N`, the cell number change was -30.6%. For the same compound, the AC50 under setting [2] was 7.31 µM [falling, full curve, poor fit].

Regarding `CCCCNC(=O)[C@]1(C)CCC[C@@]2(C)C3CC[C@@]4(C)C[C@]3(CCC21)CC4=O` (stereo partly drawn), the AC50 under setting [1] is 0.58 µM [falling, partial curve]. On to `O=C(NNC(=O)c1ccc[nH]1)Nc1cccc(C(F)(F)F)c1`, for which the cell number change was -52%. Further, under setting [2], the AC50 was 29.1 µM [falling, single point]. Moreover, the AC50 under setting [1] is 29.1 µM [falling, single point].

With `O=C(Nc1cccc(C(=O)O)c1)/C(=C/c1ccc([N+](=O)[O-])cc1)NC(=O)c1ccccc1`, under setting [1], the half-maximal activity concentration (AC50) was 0.146 µM [falling, full curve]. As for `C=CCc1cccc(/C=N/NC(=O)c2ccc3nc[nH]c3c2)c1O`, the cell number change was -15.2%. For the same compound, under setting [1], the AC50 was 29.1 µM [falling, single point]. Consider `CCN1C(=O)[C@H]2[C@@H](c3ccc(C)cc3)N3C(=O)N(c4ccc(C(F)(F)F)cc4)C(=O)[C@@]3(CC(C)C)[C@H]2C1=O`, for which the half-maximal activity concentration (AC50) under setting [1] is 20.6 µM [falling, partial curve, poor fit]. With `O=C(NCCS(=O)(=O)N1CCC2(CC1)OCCO2)c1ccccc1`, the cell number change worked out at 2.33%. For the same compound, the AC50 under setting [2] was 0.116 µM [falling, full curve, poor fit]. Also, the half-maximal activity concentration (AC50) under setting [1] was 0.13 µM [falling, full curve, poor fit]. Regarding `Cc1ccc(N2C(=O)NC(NC(=O)C(C)(C)C)(C(F)(F)F)C2=O)cc1C` (stereo not drawn), the cell number change worked out at 143%. Still for that read-out and setting: the value for `Cc1ccc(S(=O)(=O)Nc2nc3ccc(N)cc3s2)cc1` was -0.435%.

`CSCC(C)N1CCC(n2nccc2NC(=O)c2ccc3c(c2)OCO3)CC1` (stereo not drawn): the cell number change was -8.49%. The AC50 under setting [1] was 29.1 µM [rising, single point]. In the case of `CCCN(C(=O)CCNC(=O)Cn1cnc2ccccc2c1=O)c1cccc(Cl)c1`, the cell number change was -0.84%. In addition, the AC50 under setting [1] was 6.51 µM [falling, single point].

Turning to `C=CCN1C(=O)CSc2ccc(C(=O)NCCC3=CCCCC3)cc21`, the concentration at half-maximal activity (AC50) is, setting by setting: under setting [2], 6.51 µM [rising, partial curve, poor fit]; under setting [1], 0.116 µM [rising, full curve, poor fit].

With `Cc1ccc(NC(=O)N2CCCC2C(=O)NCCc2ccccc2)cc1` (stereo not drawn), the cell number change was -26.8%. Further, the AC50 under setting [2] was 4.11 µM [falling, full curve, poor fit]. For the same compound, the concentration at half-maximal activity (AC50) under setting [1] is 8.2 µM [falling, partial curve, poor fit]. Regarding `COc1ccc(S(=O)(=O)N(CC(=O)NCC2CCCO2)c2ccccc2)cc1OC` (stereo not drawn), the cell number change was 46.8%. In addition, under setting [2], the AC50 is 6.51 µM [falling, single point]. `Cc1ccc(-c2nn(-c3ccccc3)cc2/C=N/NS(=O)(=O)c2ccccc2)cc1`: the cell number change was found to be 31.5%. For the same compound, the AC50 under setting [2] is 32.6 µM [rising, single point]. With `COc1ccc(NS(=O)(=O)c2cc(NC(=O)C3CC3)ccc2N2CCCCC2)cc1`, the AC50 under setting [2] was 3.66 µM [rising, single point].

In the case of `O=C(NNc1c2ccccc2nc2ccccc12)c1ccc(O)cc1`, the AC50 under setting [1] is 7.31 µM [falling, partial curve]. For the compound `COc1ccccc1OCc1ccc(C(=O)N2N=C(C(F)F)CC2(O)C(F)F)o1` (stereo not drawn), the cell number change was found to be 9.59%. The same measure, in the same setting: the value for `O=C(Cc1ccccc1)Nc1ccccc1C(=O)O` was -2.36%.

In the case of `Cc1ccccc1N1C(S)=C(C#N)C(=O)NC12CCCCC2`, the cell number change is -49.8%. The AC50 under setting [2] is 18.4 µM [falling, single point]. The half-maximal activity concentration (AC50) under setting [1] is 29.1 µM [falling, single point]. For the compound `C#CCOCCOCCOCCNc1nc(OC)nc(N2CCN(C(=O)[C@H](CCC(=O)O)n3cc(C(N)CO)nn3)CC2)n1` (stereo partly drawn), the cell number change was -51.4%. Also, the AC50 under setting [2] was 13 µM [falling, partial curve, poor fit]. The half-maximal activity concentration (AC50) under setting [1] is 29.1 µM [falling, single point].
